Data as given in patent US7792645B2, “Three-dimensional structure of chalcone isomerase and methods of use thereof” (The Salk Institute for Biological Studies, priority 2000, dated 2010).
The name of at least one read-out is uncertain.

Tested on: chalcone isomerase (CHI)
Test: CHI enzyme assay, steady-state kinetics of 6′-deoxychalcone cyclization
Assay type: biochemical, Medicago sativa (alfalfa)
Conditions: substrate 6′-deoxychalcone, 25° C., pH 7.5
Method: CHI assays were performed at 25° C. in a 0.5 ml reaction volume containing 0.05 M Hepes (pH 7.5), 50 μM 6′-deoxychalcone, and 3% ethanol as co-solvent. Time-dependent decreases in 6′-deoxychalcone absorbance (λmax=390 nm; ε=29,400 M^−1 cm^−1) were monitored with a Beckman DU-640 spectrophotometer. Determination of steady-state kinetic constants used the standard assay system with varied concentrations of substrate (2-50 μM) following fitting to the Michaelis-Menton equation using KALEIDAGRAPH (Abelbeck Software).

Molecule | kcat/Km | kcat/Km (listed as wild-type CHI) | kcat/Km (listed as CHI Y106F mutant)
CHI wild-type: chalcone isomerase from Medicago sativa (alfalfa), SEQ ID NO:1, expressed in E. coli | 2.85e+06 M⁻¹ s⁻¹ | 2.85e+06 M⁻¹ s⁻¹ | 
CHI Y106F: alfalfa chalcone isomerase mutant, Tyr 106 substituted by phenylalanine (protein, UniProt P28012 1-222, looked up, variant Y106F) Chalcone--flavanone isomerase …: MAASITAITVENLEYPAVVTSPVTGKSYFLGGAGERGLTIEGNFIKFTAIGVYLEDIAVASLAAKWKGKSSEELLETLDFYRDIISGPFEKLIRGSKIRELSGPEFSRKVMENCVAHLKSVGTYGDAEAEAMQKFAEAFKPVNFPPGASVFYRQSPDGILGLSFSPDTSIPEKEAALIENKAVSSAVLETMIGEHAVSPDLKRCLAARLPALLNEGAFKIGN | 39500 M⁻¹ s⁻¹ |  | 39500 M⁻¹ s⁻¹
